# From PubChem BioAssay AID743266 (National Center for Advancing Translational Sciences (NCATS), 2014)
# Protein sequences, listed by entry. Tags and fused reporters are not part of them. Lines headed by an entry give the natural chain unless they say otherwise; changes in a name come on top.
# UniProt Q03431: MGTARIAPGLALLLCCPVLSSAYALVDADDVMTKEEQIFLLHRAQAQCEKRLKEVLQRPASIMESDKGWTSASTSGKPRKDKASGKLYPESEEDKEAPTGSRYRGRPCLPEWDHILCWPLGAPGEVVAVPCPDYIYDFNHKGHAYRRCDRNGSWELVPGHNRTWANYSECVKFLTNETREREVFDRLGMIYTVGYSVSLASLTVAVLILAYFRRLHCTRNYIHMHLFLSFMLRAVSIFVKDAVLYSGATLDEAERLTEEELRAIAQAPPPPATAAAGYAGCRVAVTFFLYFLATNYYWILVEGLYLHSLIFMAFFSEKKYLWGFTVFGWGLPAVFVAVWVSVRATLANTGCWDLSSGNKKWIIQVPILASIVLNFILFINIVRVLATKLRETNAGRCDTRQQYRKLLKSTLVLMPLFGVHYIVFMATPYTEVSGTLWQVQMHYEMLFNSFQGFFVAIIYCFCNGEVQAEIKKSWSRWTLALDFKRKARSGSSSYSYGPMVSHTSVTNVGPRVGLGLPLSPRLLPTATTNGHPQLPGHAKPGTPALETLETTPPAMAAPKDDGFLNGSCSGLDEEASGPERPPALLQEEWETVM
# Out of some 410,000 compounds screened, about 310 (0.076%) were called active. The inconclusive results got no clear call from the source; some entries with a clear call stand among them for comparison. Calls come from the whole dose curve; as a rule, active = well fitted activation curve with a large enough effect; inconclusive = small, poorly fitted or top-dose-only effect, or another doubt; inactive = no such curve, though single readings can be large or run the other way. Potencies beside an inconclusive call are fits to weak or partial responses and may not hold up.
# Target: Parathyroid hormone/parathyroid hormone-related peptide receptor (Homo sapiens) (UniProt Q03431)
# Test: qHTS for PTHR1 Agonists: Primary Screen; note: nearly all actives have a fitted effect of over 55% in size
# Details: HEK293 GP2 PTHR1 cells, GloSensor cAMP luminescence, 1 h; activation: at 115 µM (top of the series) unless noted; series mostly up to 115 µM
# From the text: The goal of the proposed studies is to discover new compounds that act as potent agonists on the parathyroid hormone receptor type-1 (PTHR1). The PTHR1 plays critical roles in maintaining blood calcium and phosphate levels, as well as in controlling bone remodeling. PTHR1 agonists could thus be useful for treating diseases such as hypoparathyroidism and osteoporosis. In the former disease, an agonist drug would help maintain normal blood calcium and phosphate levels under conditions of parathyroid hormone deficiency. In the latter disease, an agonist drug would stimulate new bone formation and thus reduce the risk of fracture, under conditions of bone fragility, as occurs in aging.
# To that end, we performed a quantitative high-throughput screening (qHTS) of the Molecular Libraries Probe Centers Network (MLPCN) compound libraries at the NIH Chemical Genomics Center (NCGC) for the parathyroid hormone receptor type-1 (PTHR1) using a unique HEK-293-derived cell line (GP2) that expresses the PTHR1 and a glosensor cAMP reporter construct.
# NIH Molecular Libraries Probe Production Centers Network [MLPCN]
# NIH Chemical Genomics Center [NCGC]
# Assay Submitter (PI): Thomas Gardella, Massachusetts General Hospital
# 4 microL are dispensed into a 1536-well micro plate to yield 3,000 cells/well. The plates are then incubated overnight, after which 4 microL of 0.5 mM of BIoTium Luciferin plus 0.5 mM IBMX are added. They are then incubated at 37 degree for one hour before 23 nL of compounds are added through pinning and then incubated at 37 degree again for another hour. After the plates are kept at room temperature for 15 min before they are read on the ViewLux to measure luminescence.
# Potency is the fitted concentration of half-maximal effect.
Structure (SMILES),Potency,activation,outcome
Cc1csc(NC(=O)CN2C(=O)c3ccccc3S2(=O)=O)n1,"inconclusive: 6.31 µM [activator, full curve, poor fit]",,
O=C(NCC(c1ccccc1)c1ccccc1)c1nn(-c2ccccc2F)nc1CO,,inactive: -12.2%,
COc1cc(NC(=O)c2c(C)oc3ncnc(N4CCCCC4)c23)cc(OC)c1,"inconclusive: 89.1 µM [activator, partial curve, poor fit]",,
Cc1cccc(Cn2c(SCc3ccc(C(=O)NC4CCCCC4)cc3)nc3ccncc32)c1,"inconclusive: 126 µM [activator, single point]",,
Cc1ccc2nc(Cl)c3cc(C(=O)NC4CCCCCC4)sc3c2c1,"inconclusive: 50.1 µM [activator, partial curve]",,
CCC(Sc1nc2nccnc2c(=O)n1Cc1ccc(C)cc1)C(=O)NC1CCCCC1 (centres undefined),,,inactive
Cc1ccc(Cl)cc1NS(=O)(=O)c1cc2c3c(c1)CC(=O)N3CCC2,,inactive: -17.1%,
Cc1ccccc1/C=C/C(=O)NCC(=O)N1CCC(N(C)C2CCCCC2C)CC1 (centres undefined),"inconclusive: 50.1 µM [activator, single point]",,
CC(CNC(=O)c1cc(COc2ccc3ncccc3c2)on1)c1ccccc1 (centres undefined),,inactive: -52.8%,
O=C(CCN1C(=O)c2cccc3cccc(c23)C1=O)N1CCN(c2ccccc2F)CC1,,inconclusive: 42% [activator],
COc1cc(C(=O)NCCNc2nc3ccc(C)cc3cc2C#N)cc(OC)c1OC,"inconclusive: 56.2 µM [activator, partial curve, poor fit]",,
Nc1ccc(S(=O)(=O)Nc2ccc(S(N)(=O)=O)cc2)cc1,"inconclusive: 2 µM [activator, full curve, poor fit]",,
CCCCCCc1cc2cc(C(=O)OCC)c(=O)oc2cc1O,,,inactive
CC(C)CC(c1nnnn1CC1CCCO1)N1CCN(Cc2ccc3c(c2)OCO3)CC1 (centres undefined),"inconclusive: 126 µM [activator, single point]",,
Cc1cccc(N2CCN(Cc3nnc(-c4ccc5c(c4)OCO5)o3)CC2)c1C,,inconclusive: 33.4% [activator],
Cc1cccc(C)c1NC(=O)CNC(=O)C(Cc1ccccc1)NC(=O)c1ccccc1 (centres undefined),"inconclusive: 126 µM [activator, single point]",,
O=S1(=O)c2ccc(Br)cc2N2CCC[C@@H]2CN1Cc1ccc(Cl)cc1,,inactive: -28.6%,
COC(=O)c1sc2ncccc2c1OCc1ccc(Cl)cc1,,inconclusive: 32.6% [activator],
Cc1cc(Br)ccc1OCCN1CCCC1,,inactive: -4.01%,
CCCn1nc(NS(C)(=O)=O)c2cc3cccc(C)c3nc21,,,inactive
O=CNC1(c2ccccc2)CCCCC1,"inconclusive: 50.1 µM [activator, partial curve, poor fit]",,
Cc1ccc(NC(=O)C2CCCN(S(=O)(=O)c3c(C)n[nH]c3C)C2)cc1C (centres undefined),,inconclusive: -59.9% [activator],

Structure (SMILES),Potency,activation,outcome
COCCCNC(=O)CN1C(=O)CSc2ccc(S(=O)(=O)N3CCOCC3)cc21,"inconclusive: 28.2 µM [activator, single point]",,
CN1CCN(c2ccc(NC(=O)CSc3nnnn3-c3ccccc3F)cc2)CC1,,,inactive
COc1ccc(-c2c(C(=O)c3ccc(Br)cc3)[nH]c(N)c2C(=O)c2ccccc2)cc1OC,,inactive: -88.5%,
CCOc1ccc(NC(=O)CN2C(=O)C3(SCC(=O)N3c3ccc(F)cc3)c3ccccc32)cc1 (centres undefined),,inactive: -12.9%,
COc1cc(NC(=O)COC(=O)CNC(=O)C23CC4CC(CC(C4)C2)C3)cc(OC)c1,,inconclusive: 42.4% [activator],
Cc1csc2nc(COC(=O)CNC(=O)c3ccccc3Cl)cc(=O)n12,,inconclusive: 32% [activator],
CN1CCN(C(=O)c2ccccc2NS(=O)(=O)c2ccc(F)cc2)CC1,,,inactive
C[C@@H]1CN([C@H](C)CO)C(=O)Cc2cc(NS(=O)(=O)c3ccc(F)cc3)ccc2O[C@H]1CN(C)Cc1ccc(C(=O)O)cc1,,inactive: -24.1%,
COc1ccccc1-c1nnc(C2CCN(C(=O)c3ccc(Cl)cc3)CC2)o1,"inconclusive: 79.4 µM [activator, single point]",,
C/C(=N\NC(=O)C(O)c1ccccc1)c1ccc(C)s1 (centres undefined),"inconclusive: 141 µM [activator, single point]",,
CCCN1CCc2nc(N3CCN(c4ncccn4)CC3)ncc2C1,"inconclusive: 50.1 µM [activator, partial curve, poor fit]",,
CC1(c2ccccc2)NC(=O)N(CC(=O)Nc2ccc(N3CCOCC3)cc2)C1=O (centres undefined),"inconclusive: 44.7 µM [activator, partial curve, poor fit]",,
Cc1ccc2c(=O)c(C(=O)c3ccc(F)cc3)cn(CC(=O)NCCc3ccccc3)c2n1,"inconclusive: 141 µM [activator, single point]",,
COc1cc([N+](=O)[O-])ccc1NC(=O)COC(=O)C=C(C)C,"inconclusive: 7.08 µM [activator, full curve, poor fit]",,
O=C(NCc1cccnc1)c1ccc2c(c1)C(=O)N(Cc1ccccc1)C2=O,,inconclusive: -58% [activator],
COc1ccc(CNC(=O)C/C(C)=N/NC(=O)c2ccc(OC)cc2OC)cc1,"inconclusive: 70.8 µM [activator, partial curve, poor fit]",,
Cc1cccc(N=C2NC(=O)C(CO)(CO)S2)c1,"inconclusive: 126 µM [activator, single point]",,
Cc1cccn2c(=O)c3cc(S(=O)(=O)c4ccccc4)c(=N)n(Cc4ccco4)c3nc12,"inconclusive: 22.4 µM [activator, partial curve, poor fit]",,
O=S(=O)(c1cccs1)N1CCN(CC(O)COc2cc(Cl)ccc2Cl)CC1 (centres undefined),,inactive: -8.67% [at 57.5 µM],
CCOC(=O)c1cnc(SC)nc1Nc1cccc(F)c1,"inconclusive: 39.8 µM [activator, single point]",,
CCOc1ccc(S(=O)(=O)N2CCC(C(=O)NCCc3ccccc3)CC2)cc1,"inconclusive: 1 µM [activator, full curve, poor fit]",,
CC1(c2ccc(OC(F)F)cc2)NC(=O)N(CC(=O)Nc2ccc3c(c2)OCO3)C1=O (centres undefined),"inconclusive: 3.55 µM [activator, partial curve]",,

# Exported with tabs: 8 of the compounds above
Structure (SMILES)	Potency	activation	outcome
CN1CCN(C(=O)c2ccccc2NS(=O)(=O)c2ccc(F)cc2)CC1			inactive
C[C@@H]1CN([C@H](C)CO)C(=O)Cc2cc(NS(=O)(=O)c3ccc(F)cc3)ccc2O[C@H]1CN(C)Cc1ccc(C(=O)O)cc1		inactive: -24.1%	
COc1ccccc1-c1nnc(C2CCN(C(=O)c3ccc(Cl)cc3)CC2)o1	inconclusive: 79.4 µM [activator, single point]		
C/C(=N\NC(=O)C(O)c1ccccc1)c1ccc(C)s1 (centres undefined)	inconclusive: 141 µM [activator, single point]		
CCCN1CCc2nc(N3CCN(c4ncccn4)CC3)ncc2C1	inconclusive: 50.1 µM [activator, partial curve, poor fit]		
CC1(c2ccccc2)NC(=O)N(CC(=O)Nc2ccc(N3CCOCC3)cc2)C1=O (centres undefined)	inconclusive: 44.7 µM [activator, partial curve, poor fit]		
Cc1ccc2c(=O)c(C(=O)c3ccc(F)cc3)cn(CC(=O)NCCc3ccccc3)c2n1	inconclusive: 141 µM [activator, single point]		
COc1cc([N+](=O)[O-])ccc1NC(=O)COC(=O)C=C(C)C	inconclusive: 7.08 µM [activator, full curve, poor fit]		
